Data: publication PMC9795042
Positions count from the first letter of the chain named. Results are given in words; binding and its absence hold for the method and conditions named. In cells and extracts the contact can be indirect. Some results given as binding are weak or reduced against the parent protein; the word gives no strength. Where a sequence is shown, tags or fusion partners need not be part of it.

T1: V5-his6-tagged PGAM2 (phosphoglycerate mutase 2), wild type (mouse), O70250
T1 chain: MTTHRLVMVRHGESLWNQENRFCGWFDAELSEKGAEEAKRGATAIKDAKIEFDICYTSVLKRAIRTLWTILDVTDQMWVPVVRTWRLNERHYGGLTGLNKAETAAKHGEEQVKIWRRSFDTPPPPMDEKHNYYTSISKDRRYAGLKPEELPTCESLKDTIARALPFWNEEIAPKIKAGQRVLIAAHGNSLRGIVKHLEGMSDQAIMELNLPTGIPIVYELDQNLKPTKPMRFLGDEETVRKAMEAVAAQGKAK

T2: V5-his6-tagged PGAM2 K176R mutant (mouse) (UniProt O70250)
T2 sequence: T1 chain with K176R

B1: HA-tagged PGAM2 (phosphoglycerate mutase 2), wild type, O70250 1-253 (enzyme)
chain: T1 chain
B2: HA-tagged PGAM2 (phosphoglycerate mutase 2), wild type (enzyme, UniProt O70250 1-253)
chain: T1 chain

How the values were obtained:
[1] = molecular target: T1, V5-his6-tagged PGAM2 (phosphoglycerate …); assay: co-IP; C2C12 cells co-transfected with HA-PGAM2-wt and PGAM2-wt-V5-his or PGAM2-K176R-V5-his; lysates precipitated with anti-V5 antibody (V5 antibody-conjugated agarose beads) or IgG control; blots with anti-V5-HRP and anti-HA-HRP; conditions: remark: other sources report otherwise
[2] = molecular target: T2, V5-his6-tagged PGAM2 K176R mutant (mouse); assay: as above

| Binder | binding [1] | binding [2] |
| --- | --- | --- |
| B1 | binds |  |
| B2 |  | binds |
